This is a selection; strong and weak results do not stand in their true shares. At the low end of the ranking, values are background and their order means little.

The assay addresses T1, FLI1 (UniProt Q01543).
T1 sequence: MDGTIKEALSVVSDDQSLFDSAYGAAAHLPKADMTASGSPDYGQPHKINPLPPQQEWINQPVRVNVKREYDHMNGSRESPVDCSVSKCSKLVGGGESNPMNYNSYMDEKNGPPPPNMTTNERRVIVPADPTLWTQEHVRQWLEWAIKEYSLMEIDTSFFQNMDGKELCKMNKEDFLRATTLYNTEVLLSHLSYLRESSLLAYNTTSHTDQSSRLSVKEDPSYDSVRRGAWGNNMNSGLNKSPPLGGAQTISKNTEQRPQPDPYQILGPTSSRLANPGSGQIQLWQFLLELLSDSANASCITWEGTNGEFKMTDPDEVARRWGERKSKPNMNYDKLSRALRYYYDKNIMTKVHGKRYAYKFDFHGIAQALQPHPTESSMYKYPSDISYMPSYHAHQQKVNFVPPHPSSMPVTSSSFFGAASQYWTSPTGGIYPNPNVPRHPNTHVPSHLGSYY
Nature of the assay: DAPPL (digital affinity profiling via proximity ligation, sequencing). The conditions noted are these: 10 mM Tris-HCl pH 7.5, 50 mM NaCl, 1 mM DTT, 4% glycerol, room temperature, 30 min; GST-TFs on glutathione beads, 16-mer random dsDNA library, 0.1% …; high values mean tight binding; double strand, one strand shown; scale: fold enrichment (6-mer frequency, TF over GST control).
Take ATTTTC: the binding signal was determined as 1.47.
Sequence ACCGCA registered a binding signal of 1.17.
AAGCCT returned a binding signal of 1.21.
For the sequence CCCCTG, the binding signal was determined as 1.22.
As for TGCCCC, the binding signal turned out to be 1.13.
The value for TCTCTT was 1.52; that for TGATTT was 1.29; that for TAACTA was 1.36.
CCCCTC registered a binding signal of 1.48.
The value for TGGTCC was 1.25; that for CAAACA was 0.995; that for CTCGCT was 1.81.
CAATTT showed a binding signal of 1.26.
The sequence ATACAC displayed a binding signal of 1.18.
TATGCT: the binding signal came to 1.28.
Sequence ATTACC registered a binding signal of 1.22.
CCTTGA came in with a binding signal of 1.26.
The value for TTGTTC was 1.5.
As for AACAAC, the binding signal is 1.24.
Sequence CCGCAT had a binding signal of 1.61.
For the sequence CGTCCT, the binding signal came out at 1.28.
The sequence TAAACC had a binding signal of 1.27.
With CGTTTT, the binding signal is 1.16.
ACGAAT had a binding signal of 1.12.
ATTGTA came in with a binding signal of 1.22.
The value for TTGAGC was 1.22; that for ACGCTT was 1.4; that for AGTGCT was 1.47.
The value for TCCGCG was 1.25.
In the case of TCTACA, the binding signal worked out at 1.12.
The value for TTTCCG was 3.86; that for TTATCG was 1.17; that for CCGCTT was 1.89.
ACTGAT registered a binding signal of 1.22.
Consider TCGAAC, for which the binding signal worked out at 0.943.
The sequence CCGTTT came in with a binding signal of 1.47.
For TTTCGT, the binding signal came to 1.31.
Regarding AAGATC, the binding signal stood at 0.995.
TCTGCG displayed a binding signal of 1.12.
Consider AAACTA, for which the binding signal was determined as 1.17.
